Results are given in words; binding and its absence hold for the method and conditions named. In cells and extracts the contact can be indirect. Some binding calls cover weakened binding; strength is not graded here.
Target: SQSTM1/p62 (human (endogenous in HCT15 and HCT116)) (UniProt Q13501)
Test: co-IP; endogenous p62 immunoprecipitated with anti-p62 antibody, GATA4 detected by immunoblot; CRC cells treated with chloroquine (25 uM, 24 h) in pH 7.4 or pH 6.5 medium; WIP lysis buffer

Chains of the proteins cited; added tags and fusions are not shown.
UniProt P43694: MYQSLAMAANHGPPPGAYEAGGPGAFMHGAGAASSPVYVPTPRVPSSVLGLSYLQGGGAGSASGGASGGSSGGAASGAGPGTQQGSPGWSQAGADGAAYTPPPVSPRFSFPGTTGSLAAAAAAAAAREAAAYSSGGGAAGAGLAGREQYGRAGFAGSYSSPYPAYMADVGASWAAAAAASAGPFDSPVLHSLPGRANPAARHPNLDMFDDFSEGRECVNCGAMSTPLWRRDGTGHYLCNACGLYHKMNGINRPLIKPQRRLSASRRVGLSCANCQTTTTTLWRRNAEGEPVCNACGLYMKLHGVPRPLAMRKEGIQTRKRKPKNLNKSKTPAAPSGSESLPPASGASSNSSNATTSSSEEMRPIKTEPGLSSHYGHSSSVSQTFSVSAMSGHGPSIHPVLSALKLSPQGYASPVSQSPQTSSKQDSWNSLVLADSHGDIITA

GATA4 (from UniProt P43694 1-442)
binding: binds

Source: PMC8720590
